# According to the supplement of paper PMC10032668:
# Protein sequences, listed by entry. Tags and fused reporters are not part of them.
# ITGB1, P05556, UniProt P05556, whole entry: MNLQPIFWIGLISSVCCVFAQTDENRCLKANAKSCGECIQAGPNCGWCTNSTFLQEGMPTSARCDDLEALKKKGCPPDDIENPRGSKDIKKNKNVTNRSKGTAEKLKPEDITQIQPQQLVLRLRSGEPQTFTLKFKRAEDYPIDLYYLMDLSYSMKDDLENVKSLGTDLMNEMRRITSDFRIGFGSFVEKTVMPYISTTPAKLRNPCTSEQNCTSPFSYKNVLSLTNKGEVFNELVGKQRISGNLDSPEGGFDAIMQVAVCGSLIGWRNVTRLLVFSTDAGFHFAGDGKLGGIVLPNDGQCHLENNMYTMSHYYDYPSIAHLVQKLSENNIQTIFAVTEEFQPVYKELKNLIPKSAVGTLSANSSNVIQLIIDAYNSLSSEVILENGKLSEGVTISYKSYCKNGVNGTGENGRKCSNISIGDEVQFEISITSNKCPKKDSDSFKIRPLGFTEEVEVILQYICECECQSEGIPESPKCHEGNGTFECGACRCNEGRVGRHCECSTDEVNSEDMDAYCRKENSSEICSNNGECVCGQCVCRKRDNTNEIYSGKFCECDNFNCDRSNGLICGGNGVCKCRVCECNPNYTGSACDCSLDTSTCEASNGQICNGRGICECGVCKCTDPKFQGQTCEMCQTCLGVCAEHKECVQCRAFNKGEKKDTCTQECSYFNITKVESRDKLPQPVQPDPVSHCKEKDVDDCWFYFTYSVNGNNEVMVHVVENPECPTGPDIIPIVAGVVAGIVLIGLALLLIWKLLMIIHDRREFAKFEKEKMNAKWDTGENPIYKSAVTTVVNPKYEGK
# ITPR2, Q14571, UniProt Q14571, whole entry: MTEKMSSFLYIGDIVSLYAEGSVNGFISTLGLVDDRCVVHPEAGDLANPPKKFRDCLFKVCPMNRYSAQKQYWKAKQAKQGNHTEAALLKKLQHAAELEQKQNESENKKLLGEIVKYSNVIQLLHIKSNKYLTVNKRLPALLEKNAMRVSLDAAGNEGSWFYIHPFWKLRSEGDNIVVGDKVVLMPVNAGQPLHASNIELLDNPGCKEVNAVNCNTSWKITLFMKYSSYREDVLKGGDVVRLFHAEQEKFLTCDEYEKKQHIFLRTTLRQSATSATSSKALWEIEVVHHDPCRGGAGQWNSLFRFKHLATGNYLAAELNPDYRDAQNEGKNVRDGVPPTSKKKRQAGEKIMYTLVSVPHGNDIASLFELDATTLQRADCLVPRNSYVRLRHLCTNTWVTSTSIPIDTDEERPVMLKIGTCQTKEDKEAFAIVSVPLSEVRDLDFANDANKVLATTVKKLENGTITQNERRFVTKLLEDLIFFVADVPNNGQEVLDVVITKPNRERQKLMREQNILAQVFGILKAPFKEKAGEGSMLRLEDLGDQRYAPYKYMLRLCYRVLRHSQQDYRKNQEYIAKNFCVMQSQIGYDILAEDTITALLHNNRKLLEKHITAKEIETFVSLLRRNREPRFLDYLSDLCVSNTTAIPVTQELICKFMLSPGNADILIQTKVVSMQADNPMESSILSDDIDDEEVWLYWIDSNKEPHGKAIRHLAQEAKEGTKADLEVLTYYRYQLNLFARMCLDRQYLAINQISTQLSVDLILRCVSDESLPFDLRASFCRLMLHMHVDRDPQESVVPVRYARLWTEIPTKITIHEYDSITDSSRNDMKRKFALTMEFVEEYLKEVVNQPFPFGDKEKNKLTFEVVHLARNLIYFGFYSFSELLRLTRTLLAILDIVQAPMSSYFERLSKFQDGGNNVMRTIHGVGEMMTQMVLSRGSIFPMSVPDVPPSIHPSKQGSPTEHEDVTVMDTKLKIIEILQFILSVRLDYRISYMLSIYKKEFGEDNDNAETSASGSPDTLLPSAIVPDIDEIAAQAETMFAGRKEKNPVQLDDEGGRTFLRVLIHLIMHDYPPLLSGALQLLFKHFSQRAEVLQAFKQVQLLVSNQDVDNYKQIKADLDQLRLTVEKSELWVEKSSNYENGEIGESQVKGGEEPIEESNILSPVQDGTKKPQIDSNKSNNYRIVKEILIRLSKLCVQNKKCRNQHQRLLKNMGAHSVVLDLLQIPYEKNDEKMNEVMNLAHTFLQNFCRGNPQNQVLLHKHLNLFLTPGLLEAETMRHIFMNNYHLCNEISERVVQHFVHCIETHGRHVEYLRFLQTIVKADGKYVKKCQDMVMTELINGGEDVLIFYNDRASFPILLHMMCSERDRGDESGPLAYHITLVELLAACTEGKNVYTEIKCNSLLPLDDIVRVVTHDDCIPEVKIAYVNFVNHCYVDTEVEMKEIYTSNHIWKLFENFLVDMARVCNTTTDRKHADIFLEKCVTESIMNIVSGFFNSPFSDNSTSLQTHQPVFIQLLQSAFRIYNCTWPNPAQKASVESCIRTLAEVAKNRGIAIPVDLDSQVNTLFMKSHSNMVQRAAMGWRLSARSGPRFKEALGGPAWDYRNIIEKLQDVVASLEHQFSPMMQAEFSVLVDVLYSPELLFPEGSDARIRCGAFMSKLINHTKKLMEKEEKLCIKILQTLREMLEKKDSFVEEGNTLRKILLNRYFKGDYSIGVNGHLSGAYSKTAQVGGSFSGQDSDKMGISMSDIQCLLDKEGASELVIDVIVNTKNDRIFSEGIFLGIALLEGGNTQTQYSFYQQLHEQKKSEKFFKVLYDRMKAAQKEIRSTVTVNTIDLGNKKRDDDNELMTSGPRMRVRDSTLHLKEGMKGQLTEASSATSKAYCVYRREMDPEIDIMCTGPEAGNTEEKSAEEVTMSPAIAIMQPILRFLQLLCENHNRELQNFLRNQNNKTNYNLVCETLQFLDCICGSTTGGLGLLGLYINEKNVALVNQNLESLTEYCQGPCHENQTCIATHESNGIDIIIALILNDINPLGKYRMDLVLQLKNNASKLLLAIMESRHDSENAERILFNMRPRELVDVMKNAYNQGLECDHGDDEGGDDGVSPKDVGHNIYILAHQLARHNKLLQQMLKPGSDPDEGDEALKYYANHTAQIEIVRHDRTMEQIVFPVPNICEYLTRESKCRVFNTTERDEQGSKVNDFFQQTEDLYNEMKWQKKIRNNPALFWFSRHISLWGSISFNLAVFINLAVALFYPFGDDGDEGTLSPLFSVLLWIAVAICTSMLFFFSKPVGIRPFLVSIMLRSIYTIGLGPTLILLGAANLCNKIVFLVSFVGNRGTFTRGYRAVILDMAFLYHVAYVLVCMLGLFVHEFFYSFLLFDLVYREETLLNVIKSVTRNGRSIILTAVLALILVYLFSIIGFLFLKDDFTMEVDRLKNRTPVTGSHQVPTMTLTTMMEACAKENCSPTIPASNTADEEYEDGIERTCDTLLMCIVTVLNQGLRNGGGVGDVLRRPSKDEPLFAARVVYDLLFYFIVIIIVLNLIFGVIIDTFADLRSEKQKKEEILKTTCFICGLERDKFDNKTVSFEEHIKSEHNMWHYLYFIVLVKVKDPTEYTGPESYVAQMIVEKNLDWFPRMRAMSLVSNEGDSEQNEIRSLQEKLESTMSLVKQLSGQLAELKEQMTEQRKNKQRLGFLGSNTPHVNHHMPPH
# WDR77, Q9BQA1, UniProt Q9BQA1, whole entry: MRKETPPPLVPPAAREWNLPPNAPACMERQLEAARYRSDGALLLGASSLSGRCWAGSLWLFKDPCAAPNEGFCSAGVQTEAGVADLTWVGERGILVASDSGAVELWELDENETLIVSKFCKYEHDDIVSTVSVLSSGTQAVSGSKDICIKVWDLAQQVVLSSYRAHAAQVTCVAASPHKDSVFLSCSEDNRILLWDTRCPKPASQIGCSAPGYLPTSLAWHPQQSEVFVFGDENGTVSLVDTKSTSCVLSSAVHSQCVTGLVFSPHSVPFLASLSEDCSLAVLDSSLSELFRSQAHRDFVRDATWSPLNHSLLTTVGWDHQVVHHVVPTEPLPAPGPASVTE
# Some of the results follow. The list holds hits alone, and they repeat only in part.
# Columns and labels:
# Experiment in all cases: PRISMA enrichment of interactor (LFQ) in peptide spot vs all other peptide spots (log2 fold change); higher = stronger / more specific binding of the interactor to the peptide
# EMILIN1, Q9Y6C2 = biological target: EMILIN1, Q9Y6C2
# Procedure: (§1)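 PRISMA: 221 full-length sORF-encoded peptides (3-15 aa), plus SOS1/GLUT1 control peptides, were spot-synthesized on cellulose membranes in triplicate. Membranes were incubated with HEK293T lysate, and bound proteins were identified by LC-MS/MS with LFQ. Enrichment is the log2 fold change versus all other peptide spots; only significant interactors are listed (cutoff c=6, x0=2.8).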
# FLII, Q13045 = biological target: FLII, Q13045
# Procedure: as §1
# NCBP3, Q53F19 = biological target: NCBP3, Q53F19
# Procedure: as §1
# ETHE1, O95571 = biological target: ETHE1, O95571
# Procedure: as §1
# GET4, Q7L5D6 = biological target: GET4, Q7L5D6
# Procedure: as §1
# MPP2, Q14168 = biological target: MPP2, Q14168
# Procedure: as §1
# EXOC1, Q9NV70 = biological target: EXOC1, Q9NV70
# Procedure: as §1
# MRPL53, Q96EL3 = biological target: MRPL53, Q96EL3
# Procedure: as §1
# SPTSSA, Q969W0 = biological target: SPTSSA, Q969W0
# Procedure: as §1
# F13A1, P00488 = biological target: F13A1, P00488
# Procedure: as §1
# FDX1, P10109 = biological target: FDX1, P10109
# Procedure: as §1
# GC, P02774 = biological target: GC, P02774
# Procedure: as §1
# ITGB1, P05556 = biological target: ITGB1, P05556
# Procedure: as §1
# SEPTIN8, Q92599 = biological target: SEPTIN8, Q92599
# Procedure: as §1
# TRAF2, Q12933 = biological target: TRAF2, Q12933
# Procedure: as §1
# TSFM, P43897 = biological target: TSFM, P43897
# Procedure: as §1
# GABARAPL2, P60520 = biological target: GABARAPL2, P60520
# Procedure: as §1
# HMGCL, P35914 = biological target: HMGCL, P35914
# Procedure: as §1
# ITPR2, Q14571 = biological target: ITPR2, Q14571
# Procedure: as §1
# P3H1, Q32P28 = biological target: P3H1, Q32P28
# Procedure: as §1
# PDAP1, Q13442 = biological target: PDAP1, Q13442
# Procedure: as §1
# VANGL1, Q8TAA9 = biological target: VANGL1, Q8TAA9
# Procedure: as §1
# WDR70, Q9NW82 = biological target: WDR70, Q9NW82
# Procedure: as §1
# GPC1, P35052 = biological target: GPC1, P35052
# Procedure: as §1
# ISCU, Q9H1K1 = biological target: ISCU, Q9H1K1
# Procedure: as §1
# NAP1L1, P55209 = biological target: NAP1L1, P55209
# Procedure: as §1
# PAXBP1, Q9Y5B6 = biological target: PAXBP1, Q9Y5B6
# Procedure: as §1
# ROMO1, P60602 = biological target: ROMO1, P60602
# Procedure: as §1
# RPS19BP1, Q86WX3 = biological target: RPS19BP1, Q86WX3
# Procedure: as §1
# SRPRA, P08240 = biological target: SRPRA, P08240
# Procedure: as §1
# VPS52, Q8N1B4 = biological target: VPS52, Q8N1B4
# Procedure: as §1
# WDR61, Q9GZS3 = biological target: WDR61, Q9GZS3
# Procedure: as §1
# WDR77, Q9BQA1 = biological target: WDR77, Q9BQA1
# Procedure: as §1
# ZNF622, Q969S3 = biological target: ZNF622, Q969S3
# Procedure: as §1
binder,measurement,setting,value
MARVLDRWT [COQ4],PRISMA enrichment of interactor (log2),"EMILIN1, Q9Y6C2",5.9
same,PRISMA enrichment of interactor (log2),"FLII, Q13045",5.61
same,PRISMA enrichment of interactor (log2),"NCBP3, Q53F19",5.38
MMSTDEETEAWRG [ZNF544],PRISMA enrichment of interactor (log2),"ETHE1, O95571",3.87
same,PRISMA enrichment of interactor (log2),"GET4, Q7L5D6",5.59
same,PRISMA enrichment of interactor (log2),"MPP2, Q14168",4.48
MALARKLPRC [AIP],PRISMA enrichment of interactor (log2),"EXOC1, Q9NV70",3.79
same,PRISMA enrichment of interactor (log2),"MRPL53, Q96EL3",5.28
same,PRISMA enrichment of interactor (log2),"SPTSSA, Q969W0",9.91
MVEKEVGRICAEEA [ZNF146],PRISMA enrichment of interactor (log2),"F13A1, P00488",5.51
same,PRISMA enrichment of interactor (log2),"FDX1, P10109",4.77
same,PRISMA enrichment of interactor (log2),"GC, P02774",7.66
same,PRISMA enrichment of interactor (log2),"ITGB1, P05556",4.68
same,PRISMA enrichment of interactor (log2),"SEPTIN8, Q92599",4.28
same,PRISMA enrichment of interactor (log2),"TRAF2, Q12933",5.32
same,PRISMA enrichment of interactor (log2),"TSFM, P43897",7.82
MQPSGPRGWTLL [CHID1],PRISMA enrichment of interactor (log2),"GABARAPL2, P60520",4.97
same,PRISMA enrichment of interactor (log2),"HMGCL, P35914",3.95
same,PRISMA enrichment of interactor (log2),"ITPR2, Q14571",3.62
same,PRISMA enrichment of interactor (log2),"P3H1, Q32P28",6.53
same,PRISMA enrichment of interactor (log2),"PDAP1, Q13442",5.44
same,PRISMA enrichment of interactor (log2),"VANGL1, Q8TAA9",3.91
same,PRISMA enrichment of interactor (log2),"WDR70, Q9NW82",4.09
MAAAALKAAAFGR [KDM5C],PRISMA enrichment of interactor (log2),"GPC1, P35052",7.09
same,PRISMA enrichment of interactor (log2),"ISCU, Q9H1K1",7.79
same,PRISMA enrichment of interactor (log2),"NAP1L1, P55209",6.64
same,PRISMA enrichment of interactor (log2),"PAXBP1, Q9Y5B6",6.12
same,PRISMA enrichment of interactor (log2),"ROMO1, P60602",5.68
same,PRISMA enrichment of interactor (log2),"RPS19BP1, Q86WX3",6.59
same,PRISMA enrichment of interactor (log2),"SRPRA, P08240",6.54
same,PRISMA enrichment of interactor (log2),"VPS52, Q8N1B4",9.08
same,PRISMA enrichment of interactor (log2),"WDR61, Q9GZS3",4.69
same,PRISMA enrichment of interactor (log2),"WDR77, Q9BQA1",8.03
same,PRISMA enrichment of interactor (log2),"ZNF622, Q969S3",7.81

# Another view of some results above:
binder | measurement | setting | value
MALARKLPRC [AIP] | PRISMA enrichment of interactor (log2) | SPTSSA, Q969W0 | 9.91
MVEKEVGRICAEEA [ZNF146] | PRISMA enrichment of interactor (log2) | F13A1, P00488 | 5.51
same | PRISMA enrichment of interactor (log2) | FDX1, P10109 | 4.77
same | PRISMA enrichment of interactor (log2) | GC, P02774 | 7.66
same | PRISMA enrichment of interactor (log2) | ITGB1, P05556 | 4.68
same | PRISMA enrichment of interactor (log2) | SEPTIN8, Q92599 | 4.28
same | PRISMA enrichment of interactor (log2) | TRAF2, Q12933 | 5.32
same | PRISMA enrichment of interactor (log2) | TSFM, P43897 | 7.82
